Source: patent US12350247B2, “Use of APE1/Ref-1 inhibitors for treatment of retinal diseases” (Indiana University Research and Technology Corporation, priority 2017, dated 2025)
At least one structure is not confirmed: it was looked up by name or label, or the drawing left a doubt.

Tested on: p-STAT3 (Y705)
Assay: Immunoblotting for pSTAT3 Y705 in the 3D co-culture model
Assay type: cell-based
Details: 4 hours, 12.5 μM, 8-10 days post plating

**Q.** With `N#CC[C@H](C1CCCC1)n1cc(-c2ncnc3[nH]ccc23)cn1` [Rux, Ruxolitinib, reference compound] as the compound, how does the “STAT3 activation (pSTAT3 Y705)” value read?
**A.** blocks the phosphorylation of p-STAT3 (Y705)
